# Hit rate of the full screen: of about 220,000 compounds, about 770 (0.35%) were called active. The shares of active, inactive and inconclusive entries below differ from those in the screen. Cut-off read from the data, not from the text of the source: active = binding response below about 49% or above about 150%; inconclusive = no clear call, values can overlap the other calls; inactive = in between.
# The chains behind the UniProt entries cited, without tags or fusion partners.
# UniProt P09471, whole entry, looked up: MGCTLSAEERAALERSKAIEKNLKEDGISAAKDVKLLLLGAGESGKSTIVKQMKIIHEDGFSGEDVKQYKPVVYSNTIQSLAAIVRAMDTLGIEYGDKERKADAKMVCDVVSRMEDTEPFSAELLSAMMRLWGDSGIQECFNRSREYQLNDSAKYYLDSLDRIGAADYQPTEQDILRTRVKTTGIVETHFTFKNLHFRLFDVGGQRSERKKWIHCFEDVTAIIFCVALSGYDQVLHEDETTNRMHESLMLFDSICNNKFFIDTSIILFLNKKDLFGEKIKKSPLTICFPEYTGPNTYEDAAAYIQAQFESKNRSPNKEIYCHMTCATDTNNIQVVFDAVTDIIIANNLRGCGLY
# Target: Guanine nucleotide-binding protein G(o) subunit alpha (Homo sapiens) (UniProt P09471)
# Experiment: RGS7-Galphao binding modulators, primary screen, biochemical, multiplexed bead flow cytometry (AID 1439);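 note: fluorescent Galphao held in activated GDP-AlF4 state binding bead-coupled RGS7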
# Settings: at 10 µM, actives lie on both sides
row,Structure (SMILES),binding response (% of control)
1,CCc1nnc(NC(=O)CSc2ccc(-c3cccs3)nn2)s1,inactive: 94.3%
2,COc1cccc(N2C(=O)C3C(C2=O)C3(c2ccccc2)c2ccccc2)c1 (centres undefined),inconclusive: 54.1%
3,CC(Cc1ccccc1)NC(=O)c1cc([N+](=O)[O-])ccc1Cl (centres undefined),inconclusive: 133%
4,C/C(=N\NC(=O)c1cc(-c2cccs2)nc2ccccc12)c1ccccn1,inconclusive: 104%
5,CCOc1ccc(CN2CCN(Cc3cc4c(cc3Cl)OCO4)CC2CCO)cc1 (centres undefined),inconclusive: 145%
6,NC(=O)C1CCN(C(=O)/C=C/c2ccccc2[N+](=O)[O-])CC1,inconclusive: 113%
7,CCn1c(Cc2ccccc2)n[nH]c1=S,inconclusive: 103%
8,Cc1cc(C)n(C2CC(=O)N(c3ccc(Cl)c(Cl)c3)C2=O)n1 (centres undefined),inconclusive: -25.1%
9,CCOc1cc(S(=O)(=O)n2ccnc2)ccc1Br,inconclusive: 106%
10,N/C(=N\OC(=O)c1ccccc1)c1ccncc1,inconclusive: 97.8%
11,O=C1NC(c2ccccc2Br)=N/C1=C\c1ccco1,inconclusive: 102%
12,COc1ccc(O)c(C(=O)C2c3ccccc3C(=O)N2c2ccc(C)cc2)c1 (centres undefined),inconclusive: 107%
13,FC(F)(F)c1cnc(N2CCCN(C(=S)Nc3ccccc3)CC2)c(Cl)c1,inconclusive: 108%
14,CC(=O)N1CCC(N(C(=O)Nc2ccc(C)c(C)c2)C2CCCC2)CC1,inactive: 105%
15,Cc1ccc(C)c(NC(=S)NCCc2c[nH]c3ccccc23)c1,inconclusive: -141%
16,Cc1cc(Cl)ccc1C(=O)C1CCCN(C(=O)c2ccc3ncccc3c2)C1 (centres undefined),inactive: 101%
17,COc1cccc(C(=O)/C(C#N)=N/Nc2cccc(-c3ccnc(C)n3)c2)c1,inconclusive: 5.44%
18,N#Cc1ccc(/C=C/C(=O)c2cccnc2)cc1,inconclusive: 101%
19,CCCCN(CCCC)S(=O)(=O)c1ccc(NS(=O)(=O)c2ccc(NC(C)=O)cc2)cc1,inactive: 102%
20,CCCCN1C(N)=NC[C@@H]1Cc1ccc(O)cc1,inconclusive: 105%
21,COc1ccccc1C(O)c1nccn1C (centres undefined),inconclusive: 136%
22,Cc1ccc(-c2cc(O)cc3sc(=O)oc23)cc1C,inconclusive: 31.2%
23,COc1cc(/C=C2\NC(=S)N(C)C2=O)ccc1O,inconclusive: 82.1%
24,O=C(NCc1cccnc1)C(=O)Nc1nc(C23CC4CC(CC(C4)C2)C3)cs1,inconclusive: 93.1%

row,Structure (SMILES),binding response (% of control)
1,CN1Cc2c(N3CCOCC3)nc3sc(C(=O)c4ccccc4)c(N)c3c2CC1(C)C,inconclusive: -45.2%
2,CCOC(=O)C1=NN(c2ccccc2)C(=O)C1,inconclusive: 73.9%
3,CNNC(=S)NC1CC2CC1C1C=CCC21 (centres undefined),inconclusive: 40.3%
4,COc1ccccc1NC(=O)CN(Cc1ccco1)C(=O)c1cncc(Br)c1,inconclusive: 238%
5,O=C1OC(Nc2ccc(F)c([N+](=O)[O-])c2)c2ccccc21 (centres undefined),inconclusive: 106%
6,Cc1ccc(NC(=O)C2CC(=O)Nc3ncnn32)c(C)c1 (centres undefined),inconclusive: 92.7%
7,Cc1noc(C)c1C(=O)NNc1ccc(C(C)C)cc1,inconclusive: 688%
8,O=C1N(c2ccccc2)C(=Nc2ccccc2)SC12CC2,inconclusive: 99.2%
9,C=CCNC(=S)NCC=C,inconclusive: 106%
10,Cc1cc(C)cc(NC(=O)C(=O)NCC2CCCO2)c1 (centres undefined),inconclusive: 83.9%
11,Brc1ccc(OCc2ccccc2)c(CNCC2CCCO2)c1 (centres undefined),inconclusive: 104%
12,COc1cccc(N2CC(=O)N(c3cccc(OC)c3)CC2=O)c1,inconclusive: 112%
13,CCN(CC)CCCNC(=O)CCC(=O)Nc1ccc2nc(N3CCCCC3)cc(C)c2c1,inconclusive: 103%
14,Cc1noc(C)c1C(=O)N(C)Cc1ccccc1,inconclusive: 95.4%
15,Nn1c(SCc2ccccc2F)nnc1-c1cccnc1,inconclusive: -905%
16,COc1ccc(N2CC(C(=O)Nc3nc4ccccc4s3)CC2=O)cc1 (centres undefined),inconclusive: 105%
17,Cc1ccc(NCC(=O)N/N=C/c2cc(O)ccc2[N+](=O)[O-])cc1,inactive: 103%
18,O=C(CCc1nnc(CCCCc2ccccc2)o1)N1CCN(CCO)CC1,inconclusive: 127%
19,CC(CCc1ccccc1)NC(=O)c1ccco1 (centres undefined),inactive: 102%
20,CCCCc1ccc(NC(=S)NCc2cccc(OC)c2)cc1,inconclusive: 114%
21,Cc1nnc(NC(=O)CSc2ccc(-c3ccccn3)nn2)s1,inactive: 102%
22,COc1ccc(CCNC(=S)NC(=O)c2ccccc2)cc1C,inconclusive: 90.8%
23,Fc1ccc(CSc2ccc3nnc(-c4cccnc4)n3n2)cc1,inactive: 91.3%
24,CNc1cc(C)nc(N2CCOCC2)n1,inconclusive: 95.6%

# A few values from the list.
# Under binding response (% of control), Cc1ccc(NC(=O)C2CC(=O)Nc3ncnn32)c(C)c1 (centres undefined) is listed with inconclusive: 92.7%
# Under binding response (% of control), O=C(CCc1nnc(CCCCc2ccccc2)o1)N1CCN(CCO)CC1 is listed with inconclusive: 127%

# Next entries:

row,Structure (SMILES),binding response (% of control)
1,Cc1cccc(NC(=S)Nc2cccc(C)n2)n1,inconclusive: 81.4%
2,CCc1ccc(OCC(=O)Nc2ncn[nH]2)cc1,inactive: 86.6%
3,Cc1cc(-c2ccccc2)nc2oc(C(=O)NN)c(N)c12,inconclusive: 74.8%
4,O=S(=O)(N/N=C/c1cccnc1)c1ccc(Cl)c(Cl)c1,inconclusive: 99.2%
5,COc1ccc(NC(=O)COC(=O)Cc2c(F)cccc2Cl)cc1OC,inconclusive: 103%
6,c1ccc(C2=Nn3c(nnc3-c3cccs3)SC2)cc1,inconclusive: 102%
7,COc1ccccc1NC(=O)Nc1ccnn1C1CCCCC1,inactive: 97%
8,O=C(Nn1c(-c2ccncc2)nc2ccccc2c1=O)c1ccc([N+](=O)[O-])cc1Cl,inconclusive: 106%
9,O=C(Nc1ccccc1)Nc1ccc(C(F)(F)F)cn1,inconclusive: 107%
10,COc1ccc(NC(=O)C2CCCC2)cn1,inactive: 88%
11,O=C(c1ccccc1)N1CCSc2sccc2C1=O,inconclusive: 89%
12,O=C(O)CSc1ncnc2sc(-c3ccccc3)cc12,inactive: 94.3%
13,O=C(Nc1ccc([N+](=O)[O-])cc1)Nc1ccc(Cl)cc1F,active: -4.63%
14,Cc1cc2oc(=O)cc(Cn3nnc(-c4ccc(Cl)cc4)n3)c2cc1C(C)C,inactive: 91%
15,O=C(O)c1cnc(-c2ccccc2)nc1Sc1ccc(Cl)cc1Cl,inactive: 101%
16,CCn1c(=O)c2cc(C(=O)N(C)c3ccccc3F)sc2c2ccccc21,inconclusive: 134%
17,COc1ccc(CCNC(=O)Cn2c(=O)[nH]c3ccsc3c2=O)cc1OC,inconclusive: 85.1%
18,CC(NC(=O)CSc1ccccc1C(=O)O)C1CC2CCC1C2 (centres undefined),inconclusive: 105%
19,CN1C(N)=NC(=O)/C1=C/c1ccc(OC(F)(F)F)cc1,inconclusive: 115%
20,O=C(Nc1ccc2c(c1)OCO2)C1CC(c2ccc(F)cc2)=NO1 (centres undefined),inactive: 87.6%
21,COc1ccc(C2c3ccc(O)cc3Oc3ncn4nc(-c5ccccn5)nc4c32)cc1 (centres undefined),inconclusive: -98.6%
22,NS(=O)(=O)c1ccc(N2C(=O)C(=O)/C(=C(/O)c3ccccc3)C2c2ccc(Cl)cc2)cc1 (centres undefined),inconclusive: 224%
23,CC1=C(O)C(=O)OC1c1c(Cl)cccc1Cl (centres undefined),inconclusive: 66.7%
24,CCOc1ccc2nc(NC(=O)c3cccc(-c4cc5ccccc5oc4=O)c3)sc2c1,inactive: 106%

# 7 neighbouring entries from above, quoted:
row,Structure (SMILES),binding response (% of control)
4,O=S(=O)(N/N=C/c1cccnc1)c1ccc(Cl)c(Cl)c1,inconclusive: 99.2%
5,COc1ccc(NC(=O)COC(=O)Cc2c(F)cccc2Cl)cc1OC,inconclusive: 103%
6,c1ccc(C2=Nn3c(nnc3-c3cccs3)SC2)cc1,inconclusive: 102%
7,COc1ccccc1NC(=O)Nc1ccnn1C1CCCCC1,inactive: 97%
8,O=C(Nn1c(-c2ccncc2)nc2ccccc2c1=O)c1ccc([N+](=O)[O-])cc1Cl,inconclusive: 106%
9,O=C(Nc1ccccc1)Nc1ccc(C(F)(F)F)cn1,inconclusive: 107%
10,COc1ccc(NC(=O)C2CCCC2)cn1,inactive: 88%

# Continuation.

row,Structure (SMILES),binding response (% of control)
1,O=c1[nH]c(CN2CCN(c3ccc(O)cc3)CC2)nc2scc(-c3ccc(Cl)cc3)c12,inactive: 96.3%
2,S=C(Nc1ccccc1)N1CCC(C2CCN(C(=S)Nc3ccccc3)CC2)CC1,inconclusive: 115%
3,CCC(=O)NC1OC(CO)C(O)C(O)C1O (centres undefined),inactive: 95.8%
4,Cc1ccc(F)cc1NC(=O)N1c2ccccc2NC(=O)CC1C (centres undefined),inconclusive: 98.6%
5,CCCCNS(=O)(=O)c1ccc2nc(-c3cccnc3)cc(C(=O)NCCCOC)c2c1,inconclusive: 99.9%
6,CC1CCCCC1NC(=O)/C(C#N)=C/C=C/c1ccccc1[N+](=O)[O-] (centres undefined),inconclusive: 96.7%
7,CC(/C=C/c1ccco1)=N/NC(=O)C1COc2ccccc2O1 (centres undefined),inconclusive: 53.8%
8,COC(=O)c1ccc(NC(=O)c2cc(-c3ccccn3)nc3ccccc23)cc1,inconclusive: 85.3%
9,COc1ccc([C@@H]2C[C@H](c3ccccc3)Oc3cc(OC)c(OC)c(OC)c32)cc1,inconclusive: 99.8%
10,CCOC(=O)COc1ccc(Br)cc1/C=C/c1[nH]c(=O)[nH]c(=O)c1[N+](=O)[O-],inconclusive: 94.8%
11,CC(C)(C)c1cc2nc3c(c(=O)n2[nH]1)CN(Cc1ccccc1)C3=O,inconclusive: 82.5%
12,CC(C)(C)S(=O)(=O)c1cnc(N2CCCC2)nc1N,inconclusive: 111%
13,COc1cc(C(=O)NNC(=O)c2ccc(NC(C)=O)cc2)cc(OC)c1OC,active: 16.8%
14,COc1ccccc1NC(=S)NC1CC2CCC1C2 (centres undefined),inconclusive: 42.7%
15,Cc1onc(-c2ccc(Cl)cc2)c1-c1ccnn1S(=O)(=O)c1ccc(Cl)cc1,inconclusive: 122%
16,CCCOC(=O)c1ccc(Oc2cn[nH]c2-c2ccc(OCC(=O)NN)cc2O)cc1,inconclusive: 104%
17,CCCCn1c(=O)nc2n(-c3ccc(Cl)cc3)c3ccccc3cc-2c1=O,inactive: 100%
18,NC(=O)c1c(NC(=O)CSc2nc(N)cc(=O)[nH]2)sc2c1CCCC2,inconclusive: -75.5%
19,Cc1nn(-c2ccccc2)c(C)c1NC(=O)Cc1cccs1,inactive: 55%
20,CCc1ccccc1N1C(=O)[C@@H]2Cc3ccccc3CN2C1=O,inconclusive: 91.2%
21,O=C(COC(=O)CCc1nc2ccccc2c(=O)[nH]1)NCc1ccc(F)cc1,inconclusive: 99.9%
22,C/C(N)=C(/C#N)C(=O)COC(=O)c1ccc(NC(N)=O)cc1,inconclusive: 42.6%
